# Results taken from PubChem BioAssay AID901 (National Center for Advancing Translational Sciences (NCATS), 2007).
# This is one part of the list. Shown are side measurements of this screen, not its main read-out; they come without a call. The list favours compounds with an active or inconclusive main result. The note in brackets gives the kind of curve behind each potency; many fits are weak.
# Assay: qHTS Assay for Identifying the Cell-Membrane Permeable IMPase Inhibitors
# Settings: CHO-M1 cells, IP1 accumulation, HTRF TR-FRET ratio; measured here: donor channel 620 nm AC50
row,SMILES,AC50
1,O=C(Nc1ccccc1O)c1cc(S(=O)(=O)N2CCCC2)ccc1Cl,"0.126 µM [falling, full curve]"
2,COc1ccc(C(=O)NCc2ccc(-c3nc4ccccc4s3)cc2)cc1,"0.158 µM [falling, full curve, poor fit]"
3,Cc1c(/C=C(\C#N)C(=O)Nc2cccc(Cl)c2)c2ccccc2n1Cc1ccccc1,"0.126 µM [falling, single point]"
4,COc1ccc(-c2noc(-c3ccc(C)cc3Cl)n2)cc1OC,"35.5 µM [falling, single point]"
5,COc1ccc(C(c2nnnn2C2CCCC2)N2CCC(C)CC2)cc1 (configuration not stated),"0.0631 µM [falling, full curve, poor fit]"
6,CC(=O)Nc1cccc(NC(=O)CSc2nnc(Cc3cccn3C)n2CCc2ccccc2)c1,"0.0501 µM [falling, full curve, poor fit]"
7,CCN(CC)CC(=O)N(CC(=O)Nc1c(C)cc(C)cc1C)C1CCCCC1,"31.6 µM [falling, single point]"
8,COc1cc2c(cc1OC)CN(CC(=O)Nc1cccc(C)c1)CC2,"5.62 µM [falling, single point]"
9,Cc1ccc(-n2c(=S)[nH]c3c(oc4ccccc43)c2=O)cc1,"2.51 µM [rising, full curve]"
10,C=CCn1c(CNc2ccc(C)cc2)nnc1SCC(=O)N/N=C/c1ccc(O)cc1O,"31.6 µM [falling, single point]"
11,COc1ccc(S(=O)(=O)N(CC(=O)Nc2ccc(OC)cc2OC)c2ccc(Cl)cc2)cc1,"2 µM [falling, partial curve]"
12,Cc1ccc(C(=O)NC(=S)Nc2ccccc2C(F)(F)F)cc1,"3.98 µM [rising, full curve]"
13,O=C(CN(CCO)c1ccccc1)NC12CC3CC(CC(C3)C1)C2,"0.1 µM [rising, full curve]"
14,COc1ccc(/C=N/O)cc1COc1ccc(NC(C)=O)cc1,"0.02 µM [rising, full curve, poor fit]"
15,CCOC(=O)C(NC(=O)Nc1cccc(C)n1)(OCC(F)(F)F)C(F)(F)F (configuration not stated),"0.631 µM [rising, full curve, poor fit]"
16,COc1ccc(-c2cc(-c3ccccc3)c(C#N)c(SCC(O)CS(=O)(=O)Cc3ccccc3)n2)cc1 (configuration not stated),"20 µM [falling, single point]"
17,CN=c1scc(C)n1/N=C/c1ccc(O)c(O)c1O,"12.6 µM [falling, partial curve]"
18,Cc1cc(=O)oc2cc3c(cc12)OCCN3,"1.26 µM [rising, full curve, poor fit]"
19,CC(C)n1nnnc1SCC(=O)Nc1ccccc1N1CCOCC1,"0.0251 µM [rising, full curve, poor fit]"
20,COc1ccc(CCNC(=O)CSc2ccc3ccccc3c2)cc1OC,"11.2 µM [rising, partial curve]"
21,Cn1c2c(c(=O)n(C)c1=O)C(NS(=O)(=O)c1ccccc1)(C(F)(F)F)C(=O)N2 (configuration not stated),"0.398 µM [rising, partial curve, poor fit]"
22,COCCSc1ccccc1C(=O)NCC1CCCO1 (configuration not stated),"10 µM [falling, partial curve, poor fit]"
23,COc1ccc(C(=O)/C(C)=N/O)cc1OC,"31.6 µM [falling, single point]"

row,SMILES,AC50
1,CC1=NN(c2cccc(C(=O)O)c2)C(=O)/C1=C\C=C\c1ccco1,"0.794 µM [falling, full curve]"
2,CCCSc1nc(C)c(-c2csc(C(C#N)=C3CCCC3)n2)cc1C#N,"20 µM [rising, partial curve, poor fit]"
3,CC(SC1CCCC1)C(=O)NC(C)(C#N)C(C)C (configuration not stated),"0.0251 µM [rising, full curve, poor fit]"
4,COc1ccc(C(=O)Nc2nc3ccc(S(C)(=O)=O)cc3s2)cc1,"17.8 µM [rising, single point]"
5,CCNc1nc(N)nc(Oc2ccc(OCCOc3ccccc3)nn2)n1,"6.31 µM [falling, single point]"
6,CCOC(=O)C(C)Sc1nc(-c2cccs2)ccc1C#N (configuration not stated),"0.631 µM [falling, partial curve]"
7,Brc1cc(Br)c2nc(-c3cccs3)ccc2c1,"12.6 µM [rising, partial curve, poor fit]"
8,NC(=O)CC1Nc2cccc3cccc(c23)NC1=O (configuration not stated),"10 µM [falling, partial curve]"
9,CC(=O)N1CCc2cc(Br)cc(S(=O)(=O)NCCCN3CCC(C)CC3)c21,"31.6 µM [rising, single point]"
10,Cc1ccc(SCCCn2cncn2)cc1,"2.51 µM [rising, full curve, poor fit]"
11,CC1(C)Cc2cccc(OCC(N)=O)c2O1,"31.6 µM [falling, single point]"
12,CC1CCN(C(=O)c2ccc3c(c2NCCO)C(=O)c2ccccc2C3=O)CC1,"1.58 µM [falling, partial curve]"
13,O=c1c2ccccc2oc2cc(O)c(C3COCC(CO)C(O)C(O)C3O)c(O)c12 (configuration not stated),"12.6 µM [falling, partial curve]"
14,CCCC(=O)c1ccc(N2CCN(C(=O)c3ccccc3Br)CC2)c(F)c1,"31.6 µM [falling, single point]"
15,CCN(CC)c1ccc(C=N/C(C#N)=C(\N)C#N)cc1,"20 µM [falling, single point]"
16,O=C(O)CCCC(=O)Nc1ccc(N2CCCC2)cc1,"1.58 µM [falling, partial curve]"
17,Cc1cccc[n+]1C1C(c2ccccc2)C(C#N)=C(C(=C=[N-])C#N)NC1(O)C1CC1 (configuration not stated),"12.6 µM [rising, single point]"
18,O=C(CCC1CCCCC1=O)c1ccccc1 (configuration not stated),"0.0398 µM [rising, full curve, poor fit]"
19,CCOC(=O)c1sc2ncn(CC(=O)N(CC)CC)c(=O)c2c1C,"5.01 µM [falling, single point]"
20,CCOC(=O)c1cnc(-c2ccccc2)[nH]c1=O,"0.0631 µM [rising, partial curve, poor fit]"
21,O=C(NC1CCCC1)c1cccnc1N1CCCCCC1,"0.126 µM [rising, full curve, poor fit]"
22,O=C(/C=C/c1ccc(F)cc1)N1CCCN(C(=O)/C=C/c2ccc(F)cc2)CC1,"0.0562 µM [falling, full curve, poor fit]"
23,Cc1ccc(OCCn2cc(C(=O)c3cccs3)c3ccccc32)cc1,"0.0631 µM [falling, full curve]"

row,SMILES,AC50
1,COc1ccc(OC)c(S(=O)(=O)N(C)CC(=O)Nc2ccc3c(c2)OCCO3)c1,"0.355 µM [falling, full curve, poor fit]"
2,COCCN(C(=O)CCC(=O)Nc1ccccn1)C(C(=O)NCCC(C)C)c1ccc(OC)cc1 (configuration not stated),"0.0316 µM [rising, full curve, poor fit]"
3,CCC1=Nc2cc(C(=O)NCCc3ccc(OC)c(OC)c3)ccc2Sc2ccccc21,"0.0562 µM [falling, full curve]"
4,Cc1ccc(CNC(=O)C(NS(=O)(=O)c2cccs2)C(C)C)cc1 (configuration not stated),"35.5 µM [falling, single point]"
5,CCOc1ccc(CCNC(=O)c2cccc(Nc3nc4ccccc4nc3-n3nc(C)cc3C)c2)cc1OCC,"5.01 µM [falling, single point]"
6,Cc1ccc(C)n1-c1ccc(-c2nnc3n2CCCCC3)s1,"15.8 µM [rising, single point]"
7,CCOC(=O)CSc1nnc(C2CCCCC2)n1C,"31.6 µM [falling, single point]"
8,Cc1ccc(-c2nc3cc(NC(=O)c4cc5ccccc5o4)ccc3o2)cc1Cl,"22.4 µM [falling, single point]"
9,O=C(Nc1ccc(Br)cc1F)c1sccc1-n1cccc1,"6.31 µM [falling, single point]"
10,CCC(=O)NC(Nc1sc2c(c1C(=O)OC)CCN(C)C2)(C(F)(F)F)C(F)(F)F,"0.2 µM [falling, full curve]"
11,Cc1cccn2c(=O)c3cc(C(=O)NCc4cccnc4)c(=N)n(C(C)C)c3nc12,"31.6 µM [rising, partial curve, poor fit]"
12,CN(C)/C=N/c1ncnc2c1cnn2-c1ccc(C(F)(F)F)cn1,"5.01 µM [falling, single point]"
13,COCc1nc2sc(C)c(C)c2c(=O)[nH]1,"31.6 µM [rising, single point]"
14,O=C(Nc1ccccc1Cl)NC1(C(=O)N2CCCCC2)CCCCC1,"12.6 µM [falling, single point]"
15,Cc1cccc(NC(=O)CSc2nc(-c3cccs3)cc(C(F)(F)F)c2C#N)c1C,"31.6 µM [rising, single point]"
16,Cc1cccc(NC(=O)CSc2nnc(-c3ccccc3Br)o2)c1C,"1.58 µM [falling, full curve, poor fit]"
17,COC(=O)c1cc(Br)c(=O)n(-c2cc(C)on2)c1,"25.1 µM [rising, single point]"
18,COc1cc(/C=C/C(=O)c2c(O)ccc3c(C)cc(=O)oc23)ccc1O,"35.5 µM [falling, single point]"
19,Cc1cc(=O)oc2c(CN3CCCCC3)c(O)c(Cl)cc12,"12.6 µM [rising, partial curve]"
20,Cc1c(/C=C/C(=O)c2ccc(Cl)s2)cnn1C,"1 µM [falling, full curve]"
21,O=C(O)CCCNS(=O)(=O)c1ccc(F)cc1,"0.0316 µM [rising, full curve, poor fit]"

# Some of these compounds in order of molar mass, high to low:
row,SMILES,AC50
17,Cc1cccc[n+]1C1C(c2ccccc2)C(C#N)=C(C(=C=[N-])C#N)NC1(O)C1CC1 (configuration not stated),"12.6 µM [rising, single point]"
3,CC(SC1CCCC1)C(=O)NC(C)(C#N)C(C)C (configuration not stated),"0.0251 µM [rising, full curve, poor fit]"
21,O=C(O)CCCNS(=O)(=O)c1ccc(F)cc1,"0.0316 µM [rising, full curve, poor fit]"
8,NC(=O)CC1Nc2cccc3cccc(c23)NC1=O (configuration not stated),"10 µM [falling, partial curve]"
